The reference is the same well before dosing, and untreated signal decays as well.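 Labels refer to human fibroblasts, largely primary: uterine (C12385, HUF), lung (H6013), bone (Hs27A), adrenal (HADF), skin (WS1), plus mammary HMF and breast cancer-associated Hs343T. Cancer lines are basal-like or mesenchymal-like triple-negative breast cancer. The paper counts as hits responses shifting over 3x the replicate standard deviation. The tissue of the other fibroblasts is not given here.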
Tested on: HCC1143
Test: relative JC-1 red fluorescence (viability) vs pre-drug, coculture with fibroblast (fraction); higher = more viable cancer cells
Description: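 JC-1 labelled TNBC cells cocultured 1:1 (1,500 cells each) with CellTrace Violet stained primary or stromal fibroblasts in 384-well plates in FluoroBrite medium, treated with one of 42 anticancer drugs at 0.1, 1, 10 or 100 uM. JC-1 red fluorescence (mitochondrial integrity in cancer cells only) was read by plate reader every 8 h for 72 h. Values are normalised to each well's pre-drug value. The stock of one drug was tenfold lower, so its dose labels may be too high.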

O=C1c2c(O)ccc(O)c2C(=O)c2c(NCCNCCO)ccc(NCCNCCO)c21 [Mitoxantrone]
relative JC-1 red fluorescence
Conditions | 8 h | 16 h | 24 h | 32 h | 40 h | 48 h | 56 h | 64 h | 72 h
0.1 µM, coculture fibroblast: C12385 | 0.80938 | 0.743 | 0.668 | 0.622 | 0.563 | 0.517 | 0.485 | 0.435 | 0.406
0.1 µM, coculture fibroblast: H6013 | 0.712 | 0.6329 | 0.615 | 0.622 | 0.564 | 0.556 | 0.532 | 0.516 | 0.505
0.1 µM, coculture fibroblast: H6019 | 0.817 | 0.738 | 0.694 | 0.637 | 0.6 | 0.563 | 0.518 | 0.471 | 0.432
0.1 µM, coculture fibroblast: H6076 | 0.772 | 0.739 | 0.729 | 0.741 | 0.7094 | 0.737 | 0.726 | 0.718 | 0.742
0.1 µM, coculture fibroblast: H6231 | 0.7059 | 0.745 | 0.659 | 0.504 | 0.5648 | 0.5229 | 0.492 | 0.458 | 0.436
0.1 µM, coculture fibroblast: HADF | 0.656 | 0.5761 | 0.5469 | 0.57234 | 0.495 | 0.4718 | 0.455 | 0.439 | 0.442
0.1 µM, coculture fibroblast: HCFa | 0.699 | 0.613 | 0.578 | 0.577 | 0.502 | 0.48 | 0.448 | 0.424 | 0.414
0.1 µM, coculture fibroblast: HCPF | 0.74 | 0.7711 | 0.718 | 0.6088 | 0.6609 | 0.6333 | 0.6072 | 0.584 | 0.56
0.1 µM, coculture fibroblast: HHSteC | 0.689 | 0.6013 | 0.57 | 0.557 | 0.485 | 0.451 | 0.429 | 0.408 | 0.382
0.1 µM, coculture fibroblast: HMF | 0.741 | 0.762 | 0.7085 | 0.647 | 0.657 | 0.643 | 0.62 | 0.601 | 0.586
0.1 µM, coculture fibroblast: HPFa | 0.889 | 0.819 | 0.807 | 0.744 | 0.708 | 0.675 | 0.633 | 0.586 | 0.549
0.1 µM, coculture fibroblast: HUF | 0.8304 | 0.7474 | 0.709 | 0.65 | 0.618 | 0.589 | 0.551 | 0.527 | 0.4977
0.1 µM, coculture fibroblast: Hs5 | 0.7885 | 0.7694 | 0.7422 | 0.753 | 0.701 | 0.684 | 0.676 | 0.652 | 0.665
0.1 µM, coculture fibroblast: Hs27A | 0.6167 | 0.553 | 0.526 | 0.5655 | 0.461 | 0.445 | 0.4238 | 0.4102 | 0.4346
0.1 µM, coculture fibroblast: Hs343T | 0.7656 | 0.748 | 0.711 | 0.683 | 0.677 | 0.669 | 0.654 | 0.646 | 0.639
0.1 µM, coculture fibroblast: WS1 | 0.787 | 0.726 | 0.68 | 0.629 | 0.592 | 0.553 | 0.522 | 0.494 | 0.474
1 µM, coculture fibroblast: C12385 | 0.603 | 0.547 | 0.532 | 0.495 | 0.462 | – | – | – | –
1 µM, coculture fibroblast: H6013 | 0.284 | 0.274 | 0.274 | 0.277 | 0.269 | – | – | – | –
1 µM, coculture fibroblast: H6019 | 0.636 | 0.5781 | 0.54 | 0.484 | 0.443 | – | – | – | –
1 µM, coculture fibroblast: H6076 | 0.48699 | 0.458 | 0.451 | 0.458 | 0.388 | – | – | – | –
1 µM, coculture fibroblast: H6231 | 0.423 | 0.392 | 0.386 | 0.42 | 0.355 | – | – | – | –
1 µM, coculture fibroblast: HADF | 0.257 | 0.246 | 0.254 | 0.252 | 0.232 | – | – | – | –
1 µM, coculture fibroblast: HCFa | 0.346 | 0.34 | 0.338 | 0.333 | 0.322 | – | – | – | –
1 µM, coculture fibroblast: HCPF | 0.434 | 0.39 | 0.393 | 0.424 | 0.363 | – | – | – | –
1 µM, coculture fibroblast: HHSteC | 0.304 | 0.284 | 0.28 | 0.267 | – | – | – | – | –
1 µM, coculture fibroblast: HMF | 0.415 | 0.4276 | 0.405 | 0.396 | – | – | – | – | –
1 µM, coculture fibroblast: HPFa | 0.662 | 0.617 | 0.602 | 0.527 | – | – | – | – | –
1 µM, coculture fibroblast: HUF | 0.614 | 0.576 | 0.55 | 0.509 | – | – | – | – | –
1 µM, coculture fibroblast: Hs5 | 0.4929 | 0.476 | 0.475 | 0.5 | – | – | – | – | –
1 µM, coculture fibroblast: Hs27A | 0.284 | 0.291 | 0.306 | 0.336 | – | – | – | – | –
1 µM, coculture fibroblast: Hs343T | 0.439 | 0.416 | 0.393 | 0.398 | – | – | – | – | –
1 µM, coculture fibroblast: WS1 | 0.553 | 0.532 | 0.502 | 0.44 | – | – | – | – | –
